In publication PMC11475020:
Where a protein sequence is shown, tags need not be part of it.

Target: T1, IscR-His (Caulobacter crescentus NA1000) (UniProt A0A0H3C7T4)
T1 sequence (looked up): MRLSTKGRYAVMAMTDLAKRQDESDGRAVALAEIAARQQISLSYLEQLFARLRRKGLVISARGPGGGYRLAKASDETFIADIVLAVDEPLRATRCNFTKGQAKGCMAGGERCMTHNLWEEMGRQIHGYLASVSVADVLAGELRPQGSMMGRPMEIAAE
Assay: EMSA
Conditions: holo-IscR as purified, 1 mM Mg2+, 1 mM Mn2+; 10 mM HEPES, 40 mM KCl, 1 mM MgCl2, 1 mM MnCl2, 5% glycerol, 0.1 mg/ml salmon sperm DNA, 500 ng probe, pH not stated, 30 min room temperature; recombinant protein; residues 1-158; protein details: C-terminal His6 (pET28a); probe letters rebuilt from the primers and the genome

“GAATTCCTTGGCCAGGCGATAGCCGCCGCCGGGACCCCGGGCGCTGATCACCAGACCCTTGCGGCGCAGGCGCGCGAAAAGCTGTTCGAGATAGGAAAGCGAGATCTGCTGGCGCGCGGCGATCTCGGCCAGCGCCACGGCGCGACCATCGCTTTCGTCCTGGCGTTTGGCCAGGTCGGTCATCGCCATCACGGCGTATCGGCCTTTGGTGCTCAGGCGCATCAGCCTTACCCCTTGCAGATTCCGCGCGCATCGGCTTTTGCGTGTGCTACAAGCCGCGACTTCGCGCGCGGACCATCTGTCCGCATTGCGGCTGCGATTTAGGAAGACCAAGCGCGGCGGTCAAGTATTCCGGCCCCTAAAAAGCCGGGCTCCGCCGTCGCCAGCTGAAGGGGACGATATGCCTGATGTGATTTTGACCGGCGCGTCCGGCCGGATCGAGGGTCGAATTC (double strand) [iscR promoter fragment A]”: binds.
